Reference: PubChem BioAssay AID1769 (NMMLSC, 2009)

Target: glutathione S-transferase (Schistosoma japonicum GST tag binding GSH beads)
Experiment: GST–glutathione bead interaction interference profiling – biochemical, multiplex beads, flow cytometry, profiling panel (AID 1769);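 further: target is a GST and green fluorescent protein fusion captured on glutathione beads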
Details: flow cytometry fluorescence

SMILES: N#Cc1c(-c2cccc(Br)c2)cc(-c2ccco2)[nH]c1=O
- EC50: 49.2 µM
